Test results reported in paper PMC3708822.

Target: T1, GST-SAP18 (UniProt O00422)
T1 sequence: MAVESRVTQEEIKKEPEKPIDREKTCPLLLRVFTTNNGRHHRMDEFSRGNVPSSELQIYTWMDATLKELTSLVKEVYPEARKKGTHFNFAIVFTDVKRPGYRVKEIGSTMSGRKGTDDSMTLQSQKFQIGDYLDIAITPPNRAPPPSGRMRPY
Test: pull-down; 5 ug GST-tagged proteins on glutathione sepharose 4B beads incubated 1 hour at 4°C with normalized clarified bacterial lysates of 6His-IN in 20 mM HEPES-KOH pH 8.0, 5 mM DTT, 0.1% IGEPAL; washes with 200 mM NaCl, 0.5% IGEPAL; Western blot, densitometry relative to WT; only the target purified

Question: Which binding does the source give for His6-tagged WT IN (HIV-1) here?
Answer: The binding was “binds”.

No constants are given. Whether binding was seen depends on the method and setting. Binding seen in cells or lysates may run through a third protein. Binding can be weak; no strength is given. Tags and fused reporters may be left off the sequences shown.
